Experimental data from PubChem BioAssay AID540256 (National Center for Advancing Translational Sciences (NCATS), 2011).
Several values for one entry are separate records, joined by “and”; a condition that tells them apart may be missing. Equal entries are not always repeated. Out of some 300,000 compounds screened, about 3,700 (1.2%) were called active. Inconclusive means that the source gave no clear call. Such entries were picked first, then a sample of the others. Calls follow the shape of the full dose curve; tested in HEK293 cells. Potencies beside an inconclusive call are fits to weak or partial responses and may not hold up.

Assay: qHTS for Inhibitors of binding or entry into cells for Lassa Virus; also: nearly all actives have a fitted effect of over 50% in size
Conditions: Lassa virus pseudotype entry inhibition, cell reporter; activity change, negative = inhibition: at 37.9 µM (top of the series) unless noted
% is scaled to controls: 0 for no effect and ±100 for the full control effect; potency is read from the fitted curve at half-maximal effect.

SMILES | Potency | activity change, negative = inhibition
N#Cc1c(NC(=O)C2CCCO2)sc2c1CCCCC2 (centres undefined) | inconclusive: 35.5 µM [inhibitor, single point] | 
c1coc(-c2nc(-c3ccncc3)no2)c1 | inconclusive: 35.5 µM [inhibitor, single point] | 
COC(=O)c1c(C)oc2ccc(N(C(=O)Oc3ccccc3)S(=O)(=O)c3ccc(C(C)(C)C)cc3)cc12 | inconclusive: 3.16 µM [inhibitor, single point] | 
COc1cccc(/C=N/NC(=O)CNC(=O)c2ccc(S(=O)(=O)N3CCOCC3)cc2)c1OC | inconclusive: 5.62 µM [activator, single point] | 
Cc1c(C)n(C)c2ccc(C(=O)NCCc3ccc(Cl)cc3)cc12 |  | inactive: 15.5% [at 46.1 µM]
O=c1oc(-c2cccs2)nc2sc3c(c12)CCCCC3 | inconclusive: 29.1 µM [inhibitor, single point] | 
Fc1ccc(COc2ccc(Br)cc2CNCC2CCCO2)cc1 (centres undefined) | inconclusive: 10 µM [inhibitor, partial curve, poor fit] | 
CCOc1ccc2nc(NC(=O)CS(=O)(=O)c3ccc(C)cc3)sc2c1 | inconclusive: 16.4 µM [inhibitor, single point] | 
Cc1ccc(CNC(=S)Nc2cc(C)ccc2OC(F)F)cc1 | inconclusive: 35.5 µM [inhibitor, partial curve, poor fit] | 
Cc1onc(-c2c(Cl)cccc2Cl)c1C(=O)N=C(N)N1CC(C)OC(C)C1 (centres undefined) | inconclusive: 35.5 µM [inhibitor, single point] | 
COc1cc(NC(=O)CSc2nc3[nH]ncc3c(=O)n2-c2ccccc2C)cc(OC)c1OC | inactive | 
CCOc1ccc(CCNC(=O)COC(=O)CCC(=O)c2cccs2)cc1OCC | inconclusive: 7.08 µM [activator, full curve, poor fit] | 
CCOC(=O)C1CCN(c2c(NCc3ccc(C(=O)NCCOC)cc3)c(=O)c2=O)CC1 |  | inactive: -2.73%
Cc1ccc(NC(=O)C2C3C=CC4(O3)C2C(=O)N(CCN2CCOCC2)C4C(=O)NC2CCCCC2)cc1C (centres undefined) |  | inactive: 12.9% [at 46.1 µM]
COc1ccc(CCNC/C=C/c2ccccc2)cc1 | inconclusive: 35.5 µM [inhibitor, single point] | 
O=C(c1ccc2c(c1)N(Cc1ccc(F)cc1)C(=O)c1ccccc1S2(=O)=O)N1CCN(c2ccccn2)CC1 | inconclusive: 22.4 µM [inhibitor, partial curve, poor fit] and inconclusive: 25.1 µM [inhibitor, single point] | 
CCN(Cc1cnn(C)c1)Cc1nc(C2(c3ccc(C)cc3)CCCC2)no1 | inconclusive: 3.55 µM [inhibitor, single point] | 
CCCCS(=O)(=O)c1oc(-c2ccc(F)cc2)nc1S(=O)(=O)c1ccccc1 | inconclusive: 15.8 µM [inhibitor, single point] | 
Fc1ccc(-c2cc(C(F)(F)F)nc(NCc3ccccc3)n2)cc1 |  | inactive: 11.9% [at 46.1 µM]
Cc1cn(C2OC(COC(=O)c3ccccc3)C(OC(=O)c3ccccc3)C2OC(=O)c2ccccc2)c(=O)[nH]c1=O (centres undefined) | inconclusive: 0.0065 µM [inhibitor, full curve, poor fit] | 
COc1ccccc1N1CCN(CCCNC(=O)c2cnn(-c3ccc(C)c(C)c3)c2C2CCN(C(=O)OC(C)(C)C)CC2)CC1 | inconclusive: 11.2 µM [inhibitor, partial curve, poor fit] | 
COc1cccc(CNC(=O)CSC2=Nc3ccccc3C3=NC(C)C(=O)N23)c1OC (centres undefined) | inconclusive: 35.5 µM [inhibitor, single point] | 

SMILES | Potency | activity change, negative = inhibition
COc1ccc(C2c3c4c(n(C)c3CCN2C)CCN(C)C4c2ccc(OC)cc2)cc1 (centres undefined) | inconclusive: 29.1 µM [inhibitor, single point] | 
O=C(CSc1nc2cccnc2n1Cc1ccccc1)N1CCCC1 |  | inactive: -6.54%
COc1ccc(-c2noc(N3CCN(c4ccc(C)cc4)C(C)C3)n2)cc1OC (centres undefined) |  | inactive: 25.3% [at 46.1 µM]
Cc1cccc(OCC(=O)NCC(=O)n2nc(C)cc2C)c1 |  | inactive: 3.53%
O=C(N/N=C/c1cc([N+](=O)[O-])ccc1N1CCNCC1)c1ccc([N+](=O)[O-])cc1 |  | inactive: 4.74%
COc1ccccc1-c1nnc2sc(COc3ccc(Cl)cc3Cl)nn12 | inconclusive: 14.6 µM [inhibitor, single point] | 
CCOC(=O)c1c(NC(=O)C(C)Sc2cn(CCNC(=O)c3ccccc3OC)c3ccccc23)sc2c1CCC2 (centres undefined) | inconclusive: 2.51 µM [inhibitor, single point] | 
COc1ccc(NS(=O)(=O)c2cc3c4c(c2)CCN4C(=O)CC3)cc1OC | inconclusive: 12.6 µM [inhibitor, partial curve, poor fit] | 
CCc1ccc(NC(=S)NC(=O)CC(C)C)cc1 | inconclusive: 2.31 µM [activator, single point] | 
CC1=CC(O)C(O)C2(C)C1CC1OC(=O)C(O)C3C(C)C(O)C4(O)OCC13C42 (centres undefined) | inconclusive: 31.6 µM [inhibitor, single point] | 
CC1=CC(C)(C)N(S(=O)(=O)c2ccc(C)cc2)c2ccccc21 | inconclusive: 16.4 µM [inhibitor, partial curve, poor fit] | 
Cn1c(=O)c2ccccc2n2c(CCl)nnc12 | inconclusive: 35.5 µM [inhibitor, single point] | 
Cc1ccc(S(=O)(=O)N2CC(=O)Nc3ccccc32)c(C)c1NS(C)(=O)=O |  | inactive: 1.31% [at 46.1 µM]
C/C(=N\Nc1nc(N2CCOCC2)nc(N2CCOCC2)n1)c1cccc([N+](=O)[O-])c1 |  | inactive: 0.552%
Cc1cccc(OCC(O)CN2CC3(C)CC2CC(C)(C)C3)c1 (centres undefined) | inconclusive: 20.6 µM [inhibitor, single point] | 
O=C(CC(Nc1ccccc1Cl)C(=O)O)c1ccccc1 (centres undefined) | inconclusive: 5.62 µM [inhibitor, single point] | 
COc1cccc(N(C(=O)c2ccco2)C(C(=O)NC2CCCC2)c2ccc(N3CCOCC3)cc2)c1 (centres undefined) | inconclusive: 22.4 µM [inhibitor, single point] | 
Cc1cccc(NC(=O)C2CCCN(S(=O)(=O)c3ccc4c(c3)oc(=O)n4C)C2)c1 (centres undefined) | inactive | 
O=C(COC(=O)c1ccc(Oc2ccccc2)cc1)Nc1nnc(-c2ccccc2)o1 |  | inactive: 11.2%
Cc1ccc(C2CC(C(F)(F)F)n3nc(C(=O)NCc4c(C)nn(C)c4C)c(Cl)c3N2)cc1 (centres undefined) | inconclusive: 13 µM [inhibitor, partial curve, poor fit] | 
Nc1cccc(-c2cn3cc(C(F)(F)F)cc(Cl)c3n2)c1 | inconclusive: 14.6 µM [inhibitor, single point] | 
COC(=O)[C@H](Cc1ccccc1)NC(=O)O[C@@H]1C(=O)c2cc(OC)ccc2O[C@H]1c1cccc(OC)c1 | inconclusive: 1.5 µM [activator, partial curve, poor fit] | 

Some values from the results shown:
Under activity change, negative = inhibition, Cc1ccc(S(=O)(=O)N2CC(=O)Nc3ccccc32)c(C)c1NS(C)(=O)=O has inactive: 1.31% [at 46.1 µM]
Under activity change, negative = inhibition, Cc1cccc(OCC(=O)NCC(=O)n2nc(C)cc2C)c1 has inactive: 3.53%
Under activity change, negative = inhibition, O=C(COC(=O)c1ccc(Oc2ccccc2)cc1)Nc1nnc(-c2ccccc2)o1 has inactive: 11.2%

The listing continues.

SMILES | Potency | activity change, negative = inhibition
S=C(NCCCN1CCOCC1)N1CCN(c2cccc(Cl)c2)CC1 | inconclusive: 0.631 µM [inhibitor, partial curve, poor fit] | 
CCn1c(=O)n(-c2cccc(Cl)c2)c(=O)c2sc3ccccc3c21 | inconclusive: 2.82 µM [activator, single point] | 
COc1ccccc1-n1c(CNC(=O)COc2ccccc2)n[nH]c1=S | inconclusive: 4.11 µM [inhibitor, partial curve, poor fit] | 
COc1ccc(S(=O)(=O)N2Cc3ccccc3CC2C(=O)Nc2ccc3c(c2)OCO3)cc1 (centres undefined) |  | inactive: 13.9%
Cc1ccc(NC(=O)Cn2nc(C(=O)O)c3ccccc3c2=O)c([N+](=O)[O-])c1 |  | inactive: 2.28% [at 46.1 µM]
Cc1cccc(-n2ncc3c2CCCC3NC(=O)CCN2CCCCO2)c1C (centres undefined) | inconclusive: 35.5 µM [inhibitor, single point] | 
O=C(OCc1nnc(-c2ccccc2)o1)c1ccc(-n2cnnn2)cc1 | inconclusive: 4.47 µM [activator, full curve, poor fit] | 
N#Cc1ccc(CSc2nnc(-c3ccc(Br)cc3)o2)cc1 |  | inactive: 19.5% [at 46.1 µM]
CCS(=O)(=O)c1ccccc1C(=O)N1CCN(c2nc3ccccc3s2)CC1 | inconclusive: 7.08 µM [inhibitor, partial curve, poor fit] | 
Cc1ccccc1OCc1nc2ccccc2[nH]1 | inconclusive: 15.8 µM [inhibitor, single point] | 
Cc1ccc(/C=C(\NC(=O)c2ccccc2)C(=O)NCCc2ccccn2)o1 |  | inactive: 1.7%
O=C(c1cccn1-c1nnc(N2CCCCC2)s1)N1CCN(c2ccccc2)CC1 |  | inactive: 9.7% [at 46.1 µM]
COc1cc(C2C(C#N)=C(N)Oc3c2oc(CO)cc3=O)cc(OC)c1OC (centres undefined) | inconclusive: 29.1 µM [activator, partial curve, poor fit] | 
Cc1ccc(S(=O)(=O)N(C)C)cc1NC(=O)COc1ccccc1C(=O)Nc1ccccc1 | inconclusive: 35.5 µM [inhibitor, single point] | 
Clc1cccc(CSc2ccc(-c3cccs3)nn2)c1 | inconclusive: 7.08 µM [inhibitor, partial curve, poor fit] | 
Cc1cc(/C=C(\C#N)C(=O)OCC#N)c(C)n1CC(C)C | inconclusive: 5.62 µM [inhibitor, partial curve] | 
COc1ccccc1Cn1c(SCC(=O)C(C)(C)C)nc2ccccc2c1=O | inconclusive: 1.26 µM [inhibitor, partial curve, poor fit] | 
O=C1COc2ccc(OCc3ccc(F)cc3)cc21 |  | inactive: -12.7% [at 14.3 µM]
C=CCn1c(O)c(N=NC(=S)Nc2ccccc2F)c2cc(S(=O)(=O)N3CCOCC3)ccc21 | inconclusive: 5.01 µM [inhibitor, full curve, poor fit] | 
Cc1ccc2c(c1)c1ncnc(N3CCOCC3)c1n2C | inconclusive: 20 µM [inhibitor, partial curve, poor fit] | 
